Measured values as given in PubChem BioAssay AID1347075 (National Center for Advancing Translational Sciences (NCATS), 2019).
Hit rate of the full screen: of about 400,000 compounds, about 5,500 (1.4%) were called active. Inconclusive results, whose numbers are uncertain, are shown with a selection of clear calls. The call rests on the fitted dose curve; in most records, active means well fitted cell-killing curve with a large enough effect; inconclusive means small, poorly fitted or top-dose-only effect, or effect the other way; inactive means flat fitted curve, though single readings scatter. Potencies beside an inconclusive call are fits to weak or partial responses and may not hold up.

Assay: qHTS assay for MDR1-selective chemotherapeutics: Primary screen using the parental adenocarcinoma cell KB-3-1; further: nearly all actives have a fitted effect of over 60% in size
Details: KB-3-1 viability, CellTiter-Glo ATP luminescence, 72 h; activity change, negative = cytotoxic: at 46.1 µM (top of the series)
How it was run: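 Parental KB-3-1 adenocarcinoma cells in phenol-red-free DMEM with 10% FBS were pin-treated with compounds at several concentrations, incubated 72 h at 37 °C, and viability read by CellTiter-Glo luminescence; concentration-effect curves were fitted after normalization.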
On the % scale 0 is the no-effect control and ±100 the full control effect; potency means the concentration at half of the fitted maximal effect.

Row | Structure (SMILES) | Potency | activity change, negative = cytotoxic
1 | CC1=NN(C(N)=S)C(=O)C1N=Nc1cccc([N+](=O)[O-])c1 (centres undefined) | inconclusive: 29.1 µM [rising, single point] | –
2 | COCCNc1c(-c2ccc(OC)c(OC)c2)nc2ccc(Cl)cn12 | – | inactive: -6.55%
3 | O=C(NC1CCCCC1)C(c1ccncc1)N(Cc1ccccc1)C(=O)c1ccc(-c2ccccc2)[nH]1 (centres undefined) | inconclusive: 23.1 µM [cytotoxic, single point] | –
4 | Fc1ccccc1/C=N/NC(=S)Nc1ccc(Cl)cc1Cl | active: 8.2 µM | –
5 | CN(C)c1cc[n+](CC(=O)c2ccc(OC(F)F)cc2)cc1 | active: 18.4 µM | –
6 | COc1ccc2oc3cc(C)[n+]([O-])c(-c4ccc(C)cc4)c3c2c1 | inconclusive: 23.1 µM [cytotoxic, single point] | –
7 | CCOc1ccc(NS(=O)(=O)CC23CCC(CC2=O)C3(C)C)cc1 (centres undefined) | – | inactive: -1.79%
8 | CCn1c(NC(=O)c2cccs2)nc2ccccc21 | inconclusive: 29.1 µM [cytotoxic, single point] | –
9 | CC(C)=CC(=O)Nc1ccc(OCc2ccccc2)cc1 | inconclusive: 16.4 µM [cytotoxic, single point] | –
10 | COc1ccc(-c2nc(SC(C)C(=O)NCC3CCCO3)n[nH]2)cc1 (centres undefined) | inconclusive: 20.6 µM [cytotoxic, single point] | –
11 | COc1ccc2c(CNCCc3ccc(SC)cc3)c(C(=O)O)n(Cc3ccc(F)cc3)c2c1 | inconclusive: 29.1 µM [cytotoxic, single point] | –
12 | CC(C)CC(=O)n1sc(NC(=O)c2ccccc2)nc1=O | inconclusive: 23.1 µM [rising, partial curve, poor fit] | –
13 | COc1ccc(-n2ncc3c2CC(C)(C)CC3NC(=O)c2oc(C)cc2C)cc1 (centres undefined) | – | inactive: 16%
14 | O=C(c1ccc(-n2cncn2)c([N+](=O)[O-])c1)N1CCN(S(=O)(=O)c2ccccc2F)CC1 | – | inactive: 13.5%
15 | Cc1ccc(C(O)(CNCc2ccccc2)c2ccccc2)cc1 (centres undefined) | – | inactive: 1.56%
16 | Cc1ccc(S(=O)(=O)N2[C@@H](Cc3ccccc3)CO[C@H]2CC(=O)c2cccs2)cc1 | – | inactive: -10.1%
17 | Cc1cccc(-c2cc(C(=O)Nc3sc(C)c(C)c3C(N)=O)c3ccccc3n2)c1 | – | inactive: -1.74%
18 | COCCCN1C(=O)C(CC(=O)NC2CCCCC2)CC(C(=O)N(C)C)=C1C (centres undefined) | – | inconclusive: -9.02%
19 | CCn1ncc(/C=C/C(=O)Nc2c(C)nn(Cc3ccc(Cl)cc3Cl)c2C)c1C | – | inactive: 13.4%
20 | C#CCOCCOCCOCCNc1nc(N2CCN(C(=O)CCCCCCCCCCNC(=O)Cn3cc(C[C@@H](C)O)nn3)CC2)nc(N2CCN(C(=O)CCCCCCCCCCNC(=O)[C@@H]([C@H](C)CC)n3cc(CCCCCN)nn3)CC2)n1 | active: 23.1 µM | –
21 | CC(=O)c1cccc(-c2ccc(CN3C(CC(C)C)C(=O)N(Cc4cn(CC5CCCCC5)nn4)CCS3(=O)=O)cc2)c1 (centres undefined) | inconclusive: 7.31 µM [cytotoxic, partial curve, poor fit] | –
22 | CCc1ccc(-c2cc(C)no2)cc1S(=O)(=O)NCCCN1CCN(c2ccccc2)CC1 | inconclusive: 29.1 µM [cytotoxic, single point] | –

Some values from the entries so far:
Potency, CC(C)CC(=O)n1sc(NC(=O)c2ccccc2)nc1=O is entered as inconclusive: 23.1 µM [rising, partial curve, poor fit]
Potency, CCc1ccc(-c2cc(C)no2)cc1S(=O)(=O)NCCCN1CCN(c2ccccc2)CC1 is entered as inconclusive: 29.1 µM [cytotoxic, single point]
Potency, COc1ccc(-c2nc(SC(C)C(=O)NCC3CCCO3)n[nH]2)cc1 (centres undefined) is entered as inconclusive: 20.6 µM [cytotoxic, single point]
Potency, C#CCOCCOCCOCCNc1nc(N2CCN(C(=O)CCCCCCCCCCNC(=O)Cn3cc(C[C@@H](C)O)nn3)CC2)nc(N2CCN(C(=O)CCCCCCCCCCNC(=O)[C@@H]([C@H](C)CC)n3cc(CCCCCN)nn3)CC2)n1 is entered as active: 23.1 µM

Next part

Row | Structure (SMILES) | Potency | activity change, negative = cytotoxic
23 | CCN(CC)C(=O)COc1ccc2c3c(c(=O)oc2c1C)CCCC3 | – | inactive: -5.09%
24 | COc1ccc2c(c1)OC1(C)CC2C(C(=O)c2ccccc2OC)C(=O)N1 (centres undefined) | inconclusive: 0.116 µM [rising, single point] | –
25 | Cc1cccc(OCC(=O)Nc2ccc(N3CCN(C(=O)c4ccco4)CC3)cc2)c1 | inconclusive: 14.6 µM [cytotoxic, single point] | –
26 | CC(O)c1nc2ccccc2n1CC(=O)Nc1ccc(F)cc1Cl (centres undefined) | – | inactive: -6.66%
27 | CCN(CC)C(=O)c1sc2c(c1C)c(=O)n(-c1ccc(C)c(C)c1)c(=O)n2Cc1cc(=O)n2ccccc2n1 | – | inactive: -24.2%
28 | CC(C)COc1cccc(-c2cc(C(=O)N/N=C/c3ccncc3)c3ccccc3n2)c1 | inconclusive: 25.9 µM [cytotoxic, single point] | –
29 | Cc1ccccc1-n1c(SCC(=O)Nc2ccccc2Cl)nc2n[nH]c(C)c2c1=N | inconclusive: 16.4 µM [cytotoxic, single point] | –
30 | Cc1csc(SCC(=O)Nc2ccc(F)cc2Cl)n1 | – | inactive: 1.35%
31 | CCN(CC)C(=O)c1sc2c(c1C)c(=O)n(Cc1ccccc1)c(=O)n2Cc1ccccc1C | inconclusive: 25.9 µM [cytotoxic, single point] | –
32 | COc1cccc(NC(=O)Cn2c(=O)n(-c3ccccc3)c(=O)c3oc4ccccc4c32)c1 | inconclusive: 20.6 µM [cytotoxic, single point] | –
33 | Cc1ccc(NC(=O)CCc2c[nH]c3ccccc23)nc1 | active: 4.11 µM | –
34 | COc1ccc2nc3c(cc2c1)c(NC(=O)C1CCCO1)nn3CC(C)C (centres undefined) | – | inactive: 11.3%
35 | CCN(CC)CCn1c2ccccc2c2cnc(N)c(C#N)c21 | active: 23.1 µM | –
36 | CC1(C(=O)Nc2ccc(Cl)cc2)Cc2c(-c3ccc4c(c3)OCO4)ccnc2O1 (centres undefined) | inconclusive: 29.1 µM [cytotoxic, single point] | –
37 | CC1(O)CC(c2ccc(Cl)cc2)=NN1C(=O)c1ccc([N+](=O)[O-])cc1 (centres undefined) | inconclusive: 14.6 µM [cytotoxic, single point] | –
38 | O=C1CCC[C@@H]2[C@@H](Cc3ccccc3)[C@H](N3CCN(c4ccccc4)CC3)C[C@@H]3CCN1[C@@H]32 | inconclusive: 29.1 µM [cytotoxic, single point] | –
39 | CCc1c(C)sc2c1CCN(Cc1ccccc1F)C2c1ccccc1 (centres undefined) | active: 18.4 µM | –
40 | O=C(Nc1ccc(F)cc1)/C(=C1/CCCCCN1)[N+](=O)[O-] | – | inconclusive: 8.3%
41 | CCCOc1ccccc1-n1sc2c(c1=S)-c1cc(OC)cc3c1N(C(=O)C3=O)C2(C)C | inconclusive: 29.1 µM [cytotoxic, single point] | –
42 | COc1ccc(CN2C[C@H]3CON(C)[C@H]3C[C@H]2c2ccc(-c3cccc(F)c3)cc2)cc1 | inconclusive: 29.1 µM [cytotoxic, single point] | –
43 | O=[N+]([O-])c1cc2ccccc2c(O)c1O | – | inactive: 9.34%
44 | CCc1ccc(CN(C)CC(=O)Nc2ccc(S(=O)(=O)N3CCOCC3)cc2)cc1 | inconclusive: 18.4 µM [cytotoxic, partial curve] | –
